# Some peptides are written in HELM: one residue between dots, names in brackets for other building blocks, links after the first $.
# Test: general procedure: Fmoc solid-phase peptide synthesis; Fmoc-Lys(Boc)-Wang resin (substitution 0.72 mmol/g); 0.5M HBTU/0.5M HOBT/2M DIEA in NMP
# Conditions: whole synthesis, scale 0.08 mmol, TFA salt; acetic salt after lyophilization from 2% acetic acid
substance,measurement,value
"PEPTIDE1{R.G.R.K.V.V.R.R.K.K}|PEPTIDE2{R.G.R.K.V.V.R.R}$PEPTIDE1,PEPTIDE2,9:R3-8:R2$$$V2.0",crude yield,90%
same,isolated mass,50 mg
same,isolated yield,27%

# From US9220264B2 (Singapore Health Services Pte Ltd., priority 2008, dated 2015)
